Test results reported in publication PMC5722644.
These are yes or no findings as the source states them, for the method shown. In cells and extracts the contact can be indirect. A yes stands for co-enrichment or nearness to the bait. Other partners may have been found. Tags and fused reporters may be left off the sequences shown.

Molecular target: T1, FLAG-tagged Drosophila spartin (Drosophila) (UniProt Q9VN45)
T1 sequence: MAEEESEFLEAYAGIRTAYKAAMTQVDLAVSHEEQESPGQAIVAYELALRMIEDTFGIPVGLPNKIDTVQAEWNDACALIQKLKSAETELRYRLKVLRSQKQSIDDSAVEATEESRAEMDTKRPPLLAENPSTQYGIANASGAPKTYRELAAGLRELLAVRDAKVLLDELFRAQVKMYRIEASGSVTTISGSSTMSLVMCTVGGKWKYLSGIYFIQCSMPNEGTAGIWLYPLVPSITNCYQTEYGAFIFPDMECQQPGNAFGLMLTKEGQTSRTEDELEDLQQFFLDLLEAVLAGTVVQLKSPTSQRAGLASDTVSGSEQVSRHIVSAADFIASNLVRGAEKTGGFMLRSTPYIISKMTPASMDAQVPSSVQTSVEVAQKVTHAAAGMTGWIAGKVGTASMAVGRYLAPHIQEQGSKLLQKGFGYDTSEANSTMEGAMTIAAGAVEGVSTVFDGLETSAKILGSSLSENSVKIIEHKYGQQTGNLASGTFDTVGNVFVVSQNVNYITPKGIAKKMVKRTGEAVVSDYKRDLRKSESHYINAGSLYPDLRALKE
Experiment: affinity purification with mass spectrometry; whole-cell extracts of yeast expressing FLAG-tagged Drosophila spartin (vector control beside it) on anti-FLAG M2 agarose beads; eluates on Tricine-SDS-PAGE, lanes cut into slices, in-gel trypsin digest, LC-MS/MS

Row | Binder | binding
1 | Pds5 (protein, UniProt Q04264 1-1277) MAKGAVTKLKFNSPIISTSDQLISTNELLDRLKALHEELASLDQDNTDLTGLDKYRDALVSRKLLKHKDVGIRAFTACCLSDILRLYAPDAPYTDAQLTDIFKLVLSQFEQLGDQENGYHIQQTYLITKLLEYRSIVLLADLPSSNNLLIELFHIFYDPNKSFPARLFNVIGGILGEVISEFDSVPLEVLRLIFNKFLTYNPNEIPEGLNVTSDCGYEVSLILCDTYSNRMSRHLTKYYSEIIHEATNDDNNSRLLTVVVKLHKLVLRLWETVPELINAVIGFIYHELSSENELFRKEATKLIGQILTSYSDLNFVSTHSDTFKAWISKIADISPDVRVEWTESIPQIIATREDISKELNQALAKTFIDSDPRVRRTSVMIFNKVPVTEIWKNITNKAIYTSLLHLAREKHKEVRELCINTMAKFYSNSLNEIERTYQNKEIWEIIDTIPSTLYNLYYINDLNINEQVDSVIFEYLLPFEPDNDKRVHRLLTVLSHFDKKAFTSFFAFNARQIKISFAISKYIDFSKFLNNQESMSSSQGPIVMNKYNQTLQWLASGLSDSTKAIDALETIKQFNDERIFYLLNACVTNDIPFLTFKNCYNELVSKLQTPGLFKKYNISTGASIMPRDIAKVIQILLFRASPIIYNVSNISVLLNLSNNSDAKQLDLKRRILDDISKVNPTLFKDQIRTLKTIIKDLDDPDAEKNDNLSLEEALKTLYKASKTLKDQVDFDDTFFFTKLYDFAVESKPEITKYATKLIALSPKAEETLKKIKIRILPLDLQKDKYFTSHIIVLMEIFKKFPHVLNDDSTDIISYLIKEVLLSNQVVGDSKKEIDWVEDSLLSDTKYSAIGNKVFTLKLFTNKLRSIAPDVPRDELAESFTEKTMKLFFYLIASGGELISEFNKEFYPTPSNYQTKLRCVAGIQVLKLARISNLNNFIKPSDIIKLINLVEDESLPVRKTFLEQLKDYVANELISIKFLPLVFFTAYEPDVELKTTTKIWINFTFGLKSFKKGTIFERALPRLIHAIAHHPDIVGGLDSEGDAYLNALTTAIDYLLFYFDSIAAQENFSLLYYLSERVKNYQDKLVEDEIDEEEGPQKEEAPKKHRPYGQKMYIIGELSQMILLNLKEKKNWQHSAYPGKLNLPSDLFKPFATVQEAQLSFKTYIPESLTEKIQNNIKAKIGRILHTSQTQRQRLQKRLLAHENNESQKKKKKVHHARSQADDEEGDGDRESDSDDDSYSPSNKNETKKGHENIVMKKLRVRKEVDYKDDEDDDIEMT | binds
2 | Rpn6 (protein, UniProt Q12377 1-434) MSLPGSKLEEARRLVNEKQYNEAEQVYLSLLDKDSSQSSAAAGASVDDKRRNEQETSILELGQLYVTMGAKDKLREFIPHSTEYMMQFAKSKTVKVLKTLIEKFEQVPDSLDDQIFVCEKSIEFAKREKRVFLKHSLSIKLATLHYQKKQYKDSLALINDLLREFKKLDDKPSLVDVHLLESKVYHKLRNLAKSKASLTAARTAANSIYCPTQTVAELDLMSGILHCEDKDYKTAFSYFFESFESYHNLTTHNSYEKACQVLKYMLLSKIMLNLIDDVKNILNAKYTKETYQSRGIDAMKAVAEAYNNRSLLDFNTALKQYEKELMGDELTRSHFNALYDTLLESNLCKIIEPFECVEISHISKIIGLDTQQVEGKLSQMILDKIFYGVLDQGNGWLYVYETPNQDATYDSALELVGQLNKVVDQLFEKASVLY | binds
3 | Sec4 (protein, UniProt P07560 1-215) MSGLRTVSASSGNGKSYDSIMKILLIGDSGVGKSCLLVRFVEDKFNPSFITTIGIDFKIKTVDINGKKVKLQLWDTAGQERFRTITTAYYRGAMGIILVYDVTDERTFTNIKQWFKTVNEHANDEAQLLLVGNKSDMETRVVTADQGEALAKELGIPFIESSAKNDDNVNEIFFTLAKLIQEKIDSNKLVGVGNGKEGNISINSGSGNSSKSNCC | binds
4 | Rps18ap (protein, UniProt P0CX55 1-146) MSLVVQEQGSFQHILRLLNTNVDGNIKIVYALTTIKGVGRRYSNLVCKKADVDLHKRAGELTQEELERIVQIMQNPTHYKIPAWFLNRQNDITDGKDYHTLANNVESKLRDDLERLKKIRAHRGIRHFWGLRVRGQHTKTTGRRRA | binds
5 | Rps16 (protein, UniProt P0CX51 1-143) MSAVPSVQTFGKKKSATAVAHVKAGKGLIKVNGSPITLVEPEILRFKVYEPLLLVGLDKFSNIDIRVRVTGGGHVSQVYAIRQAIAKGLVAYHQKYVDEQSKNELKKAFTSYDRTLLIADSRRPEPKKFGGKGARSRFQKSYR | binds
6 | Gde1 (enzyme, UniProt Q02979 1-1223) MKFGKTFANHRIPEWSSQYVGYKSLKKMIKEITRLQEDIYRAHNKNSYDEGRPPTKMRDSSNSAQNYLDSPKIQKLLASFFFAVDRDIEKVDTFYNSQYAEYKKRFERLLSSNQFNEIKSTLVVDANKEDAVAQTLLTKDTREMNMLLKGTSQASRLSYHKDDLIEIQSILAELRKQFRNLKWYAELNKRAFGKILKKLDKKVGTNQQMSTMKTRILPLQFANDSLITKDLSLLKTIWEQVTFRINSYERVMRSTSPNANANDNTEFFKIICVFIEEDDSKGLIRELTNLYSELSLIPTRIMISVLNKAALSKSLACIDAILKVIPSLNDSEDINRRNFFHHHIIAIGKLIRKQEILSRKKKSQPSKYTNSEGEIVTDLRTLHTTLSAPAESDSITEEEKSSACTLSYILEELPIHLRPCLFQHDNYKRTPLHYSCQYGLSEVTKLIIKLMKEWNIWNEIPIDDVSAFGDAESLTPLHLCVLGAHPKTTEVLLQSLDPNVKLKSSSLLHLATEWNNYPLLHVLLSSKRFDINYQDNELHETPLYLACRLNFFEAAVCLLYNGADLEIREKLFGWTAIFVAAAEGFTDIVKLLIANNANFDIEDEGGWTPMEHAVLRGHLHIADMVQIRDELVTHPHSQLNSGSEEKEPLNEISAGELNERNENGNGGNKGSLGKLAGPIKSYGHRFLDNNESLILITLGSNDTRNKSPSISLSSEALAKVIGLETDCALSLVISCNDSIDKSSVILDLPLDDNVDAVDFKVPFKVDYSHTLYFDIVPTYGTRSLETHNRIDCQKNNNNYVMARGVSMLNKSYSSVGVNRSILNGSVTVPIIANHTLEILGTLKFEYIIITPFEHPQLPLERTETYWKSLVSTRVIGHRGLGKNNPNKSLQIGENTVESFIMAASLGASYVEFDVQLTKDNVPVVYHDFLVAETGVDIPMHELTLEQFLDLNNADKEHIQRGAGHSPHHVNGADTALQKYRGRSVDDSDVSTLRRAWDLHDNDPNGKSNNAHWSDNRMRLTKTFKKNNFKGNARGHSIASSFVTLKELFKKIPANVGFNIECKFPMLDEAEEEELGQIMMEMNHWVDTVLKVVFDNANGRDIIFSSFHPDICIMLSLKQPVIPILFLTEGGSEQMADLRASSLQNGIRFAKKWNLLGIVSAAAPILKAPRLVQVVKSNGLVCVTYGVDNNDPENASIQIEAGVDAVIVDSVLAIRRGLTKKNEK | binds
7 | Rpl27ap (protein, UniProt P0C2H6 1-136) MAKFLKAGKVAVVVRGRYAGKKVVIVKPHDEGSKSHPFGHALVAGIERYPLKVTKKHGAKKVAKRTKIKPFIKVVNYNHLLPTRYTLDVEAFKSVVSTETFEQPSQREEAKKVVKKAFEERHQAGKNQWFFSKLRF | binds
8 | Rps15 (protein, UniProt Q01855 1-142) MSQAVNAKKRVFKTHSYRGVDLEKLLEMSTEDFVKLAPARVRRRFARGMTSKPAGFMKKLRAAKLAAPENEKPAPVRTHMRNMIIVPEMIGSVVGIYNGKAFNQVEIRPEMLGHYLGEFSITYTPVRHGRAGATTSRFIPLK | binds
9 | Rps12 (protein, UniProt P48589 1-143) MSDVEEVVEVQEETVVEQTAEVTIEDALKVVLRTALVHDGLARGLRESTKALTRGEALLVVLVSSVTEANIIKLVEGLANDPENKVPLIKVADAKQLGEWAGLGKIDREGNARKVVGASVVVVKNWGAETDELSMIMEHFSQQ | binds
10 | Yip3 (protein, UniProt P53633 1-176) MNQLGALAQVSRFTQNFSMENIKSEFQSLQSKLATLRTPQEFFNFKKISKPQNFGEVQSRVAYNLKYFSSNYGLIIGCLSIYTLLTNLLLLFVIVLVVAGIVGINKLKGEELVTPFGSFKTNQLYTGLVCVAVPIGFLASPISTLLWLIGASAVSVFGHASLMEKPIETVFDEETV | binds
11 | 6-phosphofructo-2-kinase Pfk26 (enzyme, UniProt P40433 1-827) MFKPVDFSETSPVPPDIDLAPTQSPHHVAPSQDSSYDLLSRSSDDKIDAEKGPHDELSKHLPLFQKRPLSDTPISSNWNSPGITEENTPSDSPENSATNLKSLHRLHINDETQLKNAKIPTNDTTDYMPPSDGANEVTRIDLKDIKSPTRHHKRRPTTIDVPGLTKSKTSPDGLISKEDSGSKLVIVMVGLPATGKSFITNKLSRFLNYSLYYCKVFNVGNTRRKFAKEHGLKDQDSKFFEPKNADSTRLRDKWAMDTLDELLDYLLEGSGSVGIFDATNTSRERRKNVLARIRKRSPHLKVLFLESVCSDHALVQKNIRLKLFGPDYKGKDPESSLKDFKSRLANYLKAYEPIEDDENLQYIKMIDVGKKVIAYNIQGFLASQTVYYLLNFNLADRQIWITRSGESEDNVSGRIGGNSHLTPRGLRFAKSLPKFIARQREIFYQNLMQQKKNNENTDGNIYNDFFVWTSMRARTIGTAQYFNEDDYPIKQMKMLDELSAGDYDGMTYPEIKNNFPEEFEKRQKDKLRYRYPGIGGESYMDVINRLRPVITELERIEDNVLIITHRVVARALLGYFMNLSMGIIANLDVPLHCVYCLEPKPYGITWSLWEYDEASDSFSKVPQTDLNTTRVKEVGLVYNERRYSVIPTAPPSARSSFASDFLSRKRSNPTSASSSQSELSEQPKNSVSAQTGSNNTTLIGSNFNIKNENGDSRIPLSAPLMATNTSNNILDGGGTSISIHRPRVVPNQNNVNPLLANNNKAASNVPNVKKSAATPRQIFEIDKVDEKLSMLKNKSFLLHGKDYPNNADNNDNEDIRAKTMNRSQSHV | binds
